Data reported in PubChem BioAssay AID743263 (The Scripps Research Institute Molecular Screening Center, 2014).
Out of some 1,100 compounds screened, about 250 (23%) were called active. Cut-off read from the data, not from the text of the source: active = inhibition above about 25%; inactive = the rest. The list shows a part of the results, in another mix than the full data.

Protein sequences, listed by entry. Tags and fused reporters are not part of them. Lines headed by an entry give the natural chain unless they say otherwise; changes in a name come on top.
UniProt O95551: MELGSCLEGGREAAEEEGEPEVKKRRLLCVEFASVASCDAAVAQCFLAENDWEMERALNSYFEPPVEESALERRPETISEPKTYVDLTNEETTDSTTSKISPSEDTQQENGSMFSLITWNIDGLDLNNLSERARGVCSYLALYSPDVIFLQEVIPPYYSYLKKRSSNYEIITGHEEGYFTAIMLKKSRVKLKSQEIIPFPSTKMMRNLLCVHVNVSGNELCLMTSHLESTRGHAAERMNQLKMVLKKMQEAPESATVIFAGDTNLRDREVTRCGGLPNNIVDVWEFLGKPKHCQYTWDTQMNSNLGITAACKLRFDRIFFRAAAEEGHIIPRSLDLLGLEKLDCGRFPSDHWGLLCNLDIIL

These compounds were tested against Tyrosyl-DNA phosphodiesterase 2 (Homo sapiens) (UniProt O95551) (assay: human TDP2 enzyme inhibitors, retest, confirmation, biochemical, epi absorbance, recombinant enzyme (AID 743263;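 note: 0% = vehicle with enzyme and 100% = no enzyme buffer only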)). Settings: recombinant human TDP2, absorbance read-out; at 12.8 µM; stronger effect = higher value.

Structure (SMILES) | inhibition
COc1cc2c(cc1OC)-c1c(OC)c(OC)cc3c1[C@H](C2)N(C)CC3 | active: 55.9%
O=C1NC(=O)N(Cc2ccco2)C(=O)/C1=C\c1ccc(-c2ccc(F)cc2)o1 | inactive: 16.4%
